The test addresses FLAG-tagged SMG7 14-3-3^mut (human) (UniProt Q92540). The test is described as follows: co-IP; FLAG-tagged SMG7 constructs expressed in SMG7 KO cells; lysis in buffer E (20 mM HEPES-KOH pH 7.9, 100 mM KCl, 10% glycerol, 1 mM DTT, 1 µg/ml RNase A); Anti-FLAG M2 magnetic beads, 2 h at 4 °C; immunoblot (Fig. 2c, Extended Data Fig. 3f). On the technique in general: A western blot detects proteins with antibodies after separation by electrophoresis.

Chains of the proteins cited; added tags and fusions are not shown. Lines headed by an entry give the natural chain unless they say otherwise; changes in a name come on top.
UniProt Q92540: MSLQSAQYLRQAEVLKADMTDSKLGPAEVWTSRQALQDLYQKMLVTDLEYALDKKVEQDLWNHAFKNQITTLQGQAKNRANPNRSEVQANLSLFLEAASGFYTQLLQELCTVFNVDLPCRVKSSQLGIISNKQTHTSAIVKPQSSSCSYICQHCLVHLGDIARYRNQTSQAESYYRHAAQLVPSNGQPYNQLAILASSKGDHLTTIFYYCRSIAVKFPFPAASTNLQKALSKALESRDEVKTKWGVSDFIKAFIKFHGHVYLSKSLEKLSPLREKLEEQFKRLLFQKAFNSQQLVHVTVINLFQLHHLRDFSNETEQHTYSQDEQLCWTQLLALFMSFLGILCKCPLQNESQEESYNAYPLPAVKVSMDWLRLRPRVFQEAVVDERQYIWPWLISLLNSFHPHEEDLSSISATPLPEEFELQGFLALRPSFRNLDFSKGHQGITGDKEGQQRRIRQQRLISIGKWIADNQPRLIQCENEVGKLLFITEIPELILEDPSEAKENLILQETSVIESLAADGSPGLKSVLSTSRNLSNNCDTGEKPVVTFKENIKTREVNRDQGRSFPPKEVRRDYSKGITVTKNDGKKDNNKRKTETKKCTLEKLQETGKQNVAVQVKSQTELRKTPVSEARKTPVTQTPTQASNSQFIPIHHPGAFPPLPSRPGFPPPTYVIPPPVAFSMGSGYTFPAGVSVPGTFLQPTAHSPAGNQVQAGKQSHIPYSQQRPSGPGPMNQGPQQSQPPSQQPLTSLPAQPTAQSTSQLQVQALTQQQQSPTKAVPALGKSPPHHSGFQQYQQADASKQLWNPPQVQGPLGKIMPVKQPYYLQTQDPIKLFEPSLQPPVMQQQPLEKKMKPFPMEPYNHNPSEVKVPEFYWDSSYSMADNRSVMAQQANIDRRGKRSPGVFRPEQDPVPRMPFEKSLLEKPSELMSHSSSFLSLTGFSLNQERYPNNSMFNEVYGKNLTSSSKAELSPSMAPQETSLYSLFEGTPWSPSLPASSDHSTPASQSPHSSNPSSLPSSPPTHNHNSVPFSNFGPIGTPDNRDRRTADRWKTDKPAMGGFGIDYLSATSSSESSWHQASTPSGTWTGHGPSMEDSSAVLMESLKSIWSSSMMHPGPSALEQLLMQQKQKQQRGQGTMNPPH

Results are given in words; binding and its absence hold for the method and conditions named. In cells and extracts the contact can be indirect.

B1: phosphorylated UPF1 (endogenous) (protein, UniProt Q92900 1-1129)
chain: MSVEAYGPSSQTLTFLDTEEAELLGADTQGSEFEFTDFTLPSQTQTPPGGPGGPGGGGAGGPGGAGAGAAAGQLDAQVGPEGILQNGAVDDSVAKTSQLLAELNFEEDEEDTYYTKDLPIHACSYCGIHDPACVVYCNTSKKWFCNGRGNTSGSHIVNHLVRAKCKEVTLHKDGPLGETVLECYNCGCRNVFLLGFIPAKADSVVVLLCRQPCASQSSLKDINWDSSQWQPLIQDRCFLSWLVKIPSEQEQLRARQITAQQINKLEELWKENPSATLEDLEKPGVDEEPQHVLLRYEDAYQYQNIFGPLVKLEADYDKKLKESQTQDNITVRWDLGLNKKRIAYFTLPKTDSGNEDLVIIWLRDMRLMQGDEICLRYKGDLAPLWKGIGHVIKVPDNYGDEIAIELRSSVGAPVEVTHNFQVDFVWKSTSFDRMQSALKTFAVDETSVSGYIYHKLLGHEVEDVIIKCQLPKRFTAQGLPDLNHSQVYAVKTVLQRPLSLIQGPPGTGKTVTSATIVYHLARQGNGPVLVCAPSNIAVDQLTEKIHQTGLKVVRLCAKSREAIDSPVSFLALHNQIRNMDSMPELQKLQQLKDETGELSSADEKRYRALKRTAERELLMNADVICCTCVGAGDPRLAKMQFRSILIDESTQATEPECMVPVVLGAKQLILVGDHCQLGPVVMCKKAAKAGLSQSLFERLVVLGIRPIRLQVQYRMHPALSAFPSNIFYEGSLQNGVTAADRVKKGFDFQWPQPDKPMFFYVTQGQEEIASSGTSYLNRTEAANVEKITTKLLKAGAKPDQIGIITPYEGQRSYLVQYMQFSGSLHTKLYQEVEIASVDAFQGREKDFIILSCVRANEHQGIGFLNDPRRLNVALTRARYGVIIVGNPKALSKQPLWNHLLNYYKEQKVLVEGPLNNLRESLMQFSKPRKLVNTINPGARFMTTAMYDAREAIIPGSVYDRSSQGRPSSMYFQTHDQIGMISAGPSHVAAMNIPIPFNLVMPPMPPPGYFGQANGPAAGRGTPKGKTGRGGRQKNRFGLPGPSQTNLPNSQASQDVASQPFSQGALTQGYISMSQPSQMSQPGLSQPELSQDSYLGDEFKSQIDVALSQDSTYQGERAYQHGGVTGLSQY
modifications: phosphorylated (p-UPF1); residues not stated for the co-IP blots
Turning to B1, the binding result is on record as “no binding”.

These data come from publication PMC8233366.
